Results: PubChem BioAssay AID504582 (Broad Institute, 2011)
Screen size: about 340,000 compounds; about 2,300 (0.68%) were called active. Inconclusive results, whose numbers are uncertain, are shown with a selection of clear calls. Rule as the data show it: active = growth rescue above about 28% (passing the limit was not always enough); inconclusive = no clear call, values can overlap the other calls.

Test: rescue of yeast from PfHsp40 toxicity, primary screen, S. cerevisiae, ATP luminescence (AID 504582);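 also: yeast W303a lacking pdr1 and pdr3 grown in galactose medium; growth measured after three days at 30 °C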
Conditions: S. cerevisiae expressing PfHsp40, growth rescue, at 12.5 µM, stronger effect = higher value

| SMILES | growth rescue |
| --- | --- |
| COC(=O)c1onc(-c2c(OC)cc(OC)cc2OC)c1C(=O)OC | inconclusive: 27.9% |
| O=C(OCn1ncc(Br)c(Br)c1=O)c1ccc(F)cc1 | inconclusive: 84.5% |
| Brc1ccc2ncnc(Nc3ccc(N4CCOCC4)cc3)c2c1 | inactive: 1.29% |
| COc1ccc(CCN(C)CCC(=O)Nc2ccc(C)cc2)cc1OC | inconclusive: 56.6% |
| CCCNC(=S)N1CCN(c2nc(C)nc3sc4c(c23)CCCC4)CC1 | active: 31.8% |
| O=C(c1ccc([N+](=O)[O-])o1)N1CCc2ccccc2C1 | active: 53.2% |
| CC(=O)c1c(OC(=O)c2ccco2)c2ccccc2n1C | inactive: 0.98% |
| CCCNc1nc(-c2cc(C(=O)Nc3ccccc3)on2)cc(C(C)C)n1 | active: 365% |
| Cc1ccc(-c2nc3ccc(Cl)cc3c(=O)n2O)cc1 | active: 355% |
| CCN(CC(=O)Nc1cccc(OC)c1)CC(=O)Nc1ccc(Br)c(C)c1 | inconclusive: 48.1% |
| Cc1cccc(NS(=O)(=O)c2ccc3c(c2)NC(=O)CO3)c1C | inconclusive: 36.5% |
| CN1/C(=C\C(=O)c2ccco2)C(C)(C)c2ccccc21 | inconclusive: 31.3% |
| O=C(CSc1nc2ccccc2s1)c1ccc(O)cc1O | inactive: -0.708% |
| CCCC(=O)N1CCN(c2ccc(NC(=O)c3ccc([N+](=O)[O-])o3)cc2Cl)CC1 | inconclusive: 108% |
| N#Cc1ccccc1NC(=O)C(=O)NCCCN1CCCC1=O | inactive: 0.652% |
| Cc1ccc(OCCSc2cc(C)nc(N)n2)cc1 | inconclusive: 35.2% |
| COc1ccc2[nH]c3c(c2c1)CCN1C(=O)C(CC(=O)NCc2cccc(C(F)(F)F)c2)C[C@H](C(=O)N2CCOCC2)[C@@]31C (some centres undefined) | inconclusive: 40.1% |
| CC(=O)c1ccc(NC(=S)Nc2cccc3ccccc23)cc1 | inactive: 0.0975% |
| COc1ccc(S(=O)(=O)Cc2ccc(C(=O)NCCc3ccc(S(N)(=O)=O)cc3)o2)cc1 | inactive: -0.831% |
| CSc1cccc(NC(=O)/C=C/c2ccccc2)c1 | inconclusive: 130% |
| CN(C)CCn1c2c(c(SCC(=O)Nc3cccc(C(F)(F)F)c3)nc1=O)CCCC2 | inconclusive: 44.4% |
| COc1cccc(-c2sc3cc(OC)c(OC)cc3c2-c2ccc(OCCN3CCCCC3)cc2)c1 | inconclusive: 92.2% |
| COC(=O)CSc1nc(Cc2ccccc2)nc2ccccc12 | inactive: 2.4% |

Single entries from the list:
Entry for CCN(CC(=O)Nc1cccc(OC)c1)CC(=O)Nc1ccc(Br)c(C)c1 under growth rescue: inconclusive: 48.1%
Entry for O=C(OCn1ncc(Br)c(Br)c1=O)c1ccc(F)cc1 under growth rescue: inconclusive: 84.5%
Entry for CCCC(=O)N1CCN(c2ccc(NC(=O)c3ccc([N+](=O)[O-])o3)cc2Cl)CC1 under growth rescue: inconclusive: 108%
Entry for O=C(CSc1nc2ccccc2s1)c1ccc(O)cc1O under growth rescue: inactive: -0.708%

Next part:

| SMILES | growth rescue |
| --- | --- |
| COC(=O)Cc1csc(Nc2ccc(F)c(Cl)c2)n1 | inconclusive: 27% |
| Cc1ccc(C(=O)c2oc3ccccc3c2NC(=O)c2cc(-c3cc(C)ccc3O)n[nH]2)cc1 | inconclusive: 64.2% |
| O=C(Cc1ccccc1)Nc1ccc(-c2nnc(-c3ccco3)o2)cc1 | inconclusive: 44.4% |
| COc1cccc(CNC(=O)N[C@@H](CC(C)C)C(=O)O)c1 | inconclusive: 48.8% |
| COc1ccccc1Oc1ncnc2c1cnn2-c1ccccc1 | inconclusive: 33.3% |
| COC(=O)c1ccc(N2C(=O)CC(N3CCC(O)(c4ccc(Br)cc4)CC3)C2=O)cc1 (centres undefined) | inconclusive: 107% |
| CCOC(=O)/C(C#N)=C/C=C1\C=Cc2ccccc2N1CC | inconclusive: 51.2% |
| CCOCCn1c(CN2CCN(C)CC2)nc2c1c(=O)n(C)c(=O)n2C | inconclusive: 40% |
| COc1ccc(S(=O)(=O)N(C)c2ccc(OC(=O)C(C)Oc3ccc(F)cc3)cc2)cc1 (centres undefined) | inactive: -0.704% |
| CC(=O)Nc1ccc(Nc2cc(C)nc3c(-c4ccccc4)cnn23)cc1 | inconclusive: 61.6% |
| Cc1ccc(N2CC(O)Cn3c2nc2c3c(=O)[nH]c(=O)n2C)cc1 (centres undefined) | inactive: 0.724% |
| CS(=O)(=O)Nc1ccc(C2=NN(C(=O)c3ccccc3)C(c3cccs3)C2)cc1 (centres undefined) | inconclusive: 62.1% |
| O=C(O)c1ccc(N/N=C/c2cc3ccccc3nc2Cl)cc1 | inconclusive: 108% |
| COc1ccc(NC(=O)C(Cl)=C(Cl)Cl)cn1 | inactive: 0.983% |
| COCCNc1nc(-n2nc(C)cc2C)nc2sc3c(c12)CCCC3 | active: 111% |
| CCOc1ccc(NC(=O)C2CCCN(S(=O)(=O)c3ccc4[nH]c(=O)ccc4c3)C2)cc1 (centres undefined) | active: 48.6% |
| COc1ccc(NC(=O)CSc2ccc(-c3ccccn3)nn2)cc1OC | active: 215% |
| Cc1ccccc1NCC(=O)N/N=C\c1ccc([N+](=O)[O-])s1 | active: 406% |
| CC1CCCN(Cc2c(C(=O)N3CCc4ccccc4C3)nc3ccc(Cl)cn23)C1 (centres undefined) | active: 54.7% |
| O=c1[nH]c(=S)n(Cc2ccc(F)cc2)c(O)c1C=NCc1ccc2c(c1)OCO2 | inactive: 0.186% |
| CCCSc1nsc(NC(=O)CCC)n1 | inconclusive: 49.3% |
| COc1ccccc1NS(=O)(=O)c1ccc2oc(SC3CCOC3=O)nc2c1 (centres undefined) | inconclusive: 29.3% |
| CCC(=O)c1c(O)n(C2CCCCCC2)c(=O)[nH]c1=O | active: 80.7% |

| SMILES | growth rescue |
| --- | --- |
| Cc1ccc(C[n+]2c(-c3ccc(C)cc3)cc(-c3ccc(C)cc3)cc2-c2ccc(C)cc2)cc1 | inconclusive: 26.9% |
| O=[N+]([O-])c1cccc(SSc2cccc([N+](=O)[O-])c2)c1 | inconclusive: 149% |
| CC(C)(C)OC(=O)NCCCCCNC(=O)c1[nH]cnc1C(=O)N[C@@H](CCCCNC(=O)OC(C)(C)C)C(=O)OC(C)(C)C | inconclusive: 30.3% |
| CC(C)C(=O)NC(=S)Nc1ccc(S(=O)(=O)N2CCCC2)cc1 | inactive: 0.307% |
| O=C1C(Cl)=C(NCc2ccco2)C(=O)c2ccccc21 | inconclusive: 28.1% |
| C[C@]12C=CC(=O)C=C1CC[C@@H]1[C@@H]2CC[C@]2(C)C(=O)CC[C@@H]12 | active: 48.1% |
| O=S(=O)(Nc1ccccc1)c1ccc(Oc2ncc(C(F)(F)F)cc2Cl)cc1 | active: 282% |
| Oc1ccc(C=NC2CCCCC2)c(O)c1 | active: 35.3% |
| COc1ccc2sc(-c3ccc(SC)cc3)c(C#CC(C)(C)O)c2c1 | inconclusive: 38.2% |
| Cc1[nH]n(-c2ccccc2)c(=O)c1/C=N/NC(=O)c1cccc([N+](=O)[O-])c1 | inconclusive: 30.5% |
| CCOc1cccc2sc(NC(=O)CCS(=O)(=O)c3ccccc3)nc12 | inconclusive: 31.4% |
| CC(=O)c1ccc(NC(=O)CSc2nnc(Cn3c(=O)sc4ccccc43)n2C)cc1 | inconclusive: 26.2% |
| COC(=O)N1C(=O)[C@@](c2ccccc2)(C2CCCCC2)N1C(=O)OC | inconclusive: 34.4% |
| CSCCC(NC(=O)COc1ccccc1)C(=O)N1CCN(C(C)=O)CC1 (centres undefined) | inconclusive: 54.2% |
| CC1(c2ccccn2)Nc2ccccc2-c2nc3ccccc3n21 (centres undefined) | inactive: -0.65% |
| Cc1cccc(C2N=C(N)Nc3nc4ccccc4n32)c1 (centres undefined) | inactive: -0.437% |
| Cc1ccc(S(=O)(=O)NCCC(=O)OCC(=O)NCCc2ccccc2)cc1C | inconclusive: 32.8% |
| COc1ccc(/C=C2/N=C(SCC(=O)Nc3cc(C)on3)N(c3ccccc3)C2=O)cc1 | inactive: 10.8% |
| CCCn1c(NC(=S)Nc2ccccc2)nc2ccccc21 | inconclusive: 48.3% |
| CC1=C(C)CS(=O)N(S(=O)(=O)c2ccc(Cl)cc2)C1 (centres undefined) | inconclusive: 97.6% |
| O=C(NNC(=S)Nc1cccc2ccccc12)c1cccc(Br)c1 | inconclusive: 26.9% |
| O=C1c2ccccc2C(=O)c2c1oc(C(F)(F)F)c2C(=O)c1ccccc1 | inconclusive: 157% |
| O=C(Nc1ccc(C(=O)Oc2ccccc2)c(O)c1)c1ccco1 | inactive: 4.49% |

| SMILES | growth rescue |
| --- | --- |
| CCCn1c(-c2ccncc2)n[nH]c1=S | inconclusive: 32.5% |
| COc1ccc(C(=O)NC(=S)Nc2ccc3[nH]c(=O)[nH]c3c2)c(OC)c1 | inactive: -2.48% |
| NC(=O)NC(Cc1ccccc1)C(=O)NCCCSc1ccccc1 (centres undefined) | inactive: -0.914% |
| CC(C)(C)OC(=O)C[C@@H]1C/C=C\C[C@H](CC(=O)N(CCO)Cc2ccccc2)C(=O)NC[C@H](c2ccccc2)OC1=O | inconclusive: 25.9% |
| CN(C1CCCCC1)S(=O)(=O)c1ccc(NC(=O)c2ccc(Br)o2)cc1 | inconclusive: 25.3% |
| COC(=O)CSc1nc2cc3c(cc2cc1C)OCCO3 | active: 163% |
| Cc1nnc(C)n1/N=C/c1cc(Br)cc(Br)c1O | inconclusive: 36.6% |
| COc1cccc2cc(C(=O)N(C)C3CCN(C)CC3)c(=O)oc12 | inconclusive: 25.4% |
| O=C(c1cccs1)N1CCN(CCCc2ccccc2)CC1 | inactive: 1.04% |
| CCN1CCN(c2oc(-c3ccc(OC)cc3)nc2C#N)CC1 | inactive: -1.48% |
| Cc1onc(-c2ccccc2Cl)c1C(=O)N1CCC(Cc2ccccc2)CC1 | inconclusive: 32.5% |
| O=C(N/N=C/c1c(O)ccc2ccccc12)c1ccc[n+](CCO)c1 | inconclusive: 28.8% |
| CSC1CCCCC1(O)CSc1nc2ccccc2o1 (centres undefined) | inconclusive: 26.6% |
| COc1ccc(C2=Nn3c(nnc3-c3ccccc3F)SC2)cc1OC1CCCC1 | inactive: 12.6% |
| Cc1ccccc1-n1c(/C=C/c2ccccn2)nc2ccccc2c1=O | inactive: 0.882% |
| CCCCCCCNC(=O)C1(CC2CC(c3ccccc3)=NO2)CCNCC1 (centres undefined) | inconclusive: 52.2% |
| CC(=O)Oc1cc2oc(=O)cc(C)c2cc1OC(C)=O | inconclusive: 26.1% |
| Cc1ccc(NC(=O)c2ccccc2NS(=O)(=O)c2ccc(Cl)s2)cc1 | active: 80.1% |
| CCc1ccc(-c2cc(C(=O)N3N=C(C(F)F)CC3(O)C(F)F)c3ccccc3n2)cc1 (centres undefined) | active: 174% |
| COc1ccc(Oc2nc(-c3ccccn3)ncc2OC)cc1 | inconclusive: 45% |
